Measurements taken from publication PMC9376089, “Reformation of the chondroitin sulfate glycocalyx enables progression of AR-independent prostate cancer”.

What was measured:
AR-DBD (EMSA) = biological target: T1, AR-DBD (EMSA) (UniProt P10275); assay: EMSA; details: 500 ng AR-DBD, 100 fmol probe, poly(dI-dC); EMSA: 10 mM Tris pH 7.5, 50 mM KCl, DTT (1 mM; 2.5 mM with 0.25% Tween 20), 1 ug poly(dI-dC), room temperature 20 min; recombinant protein; label: IR700 (position not given)
T1 sequence (looked up, limits assumed): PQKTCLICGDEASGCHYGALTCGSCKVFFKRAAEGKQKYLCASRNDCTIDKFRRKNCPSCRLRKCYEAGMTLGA

AR-DBD (biotinylated) = biological target: T2, AR-DBD (biotinylated) (UniProt P10275); assay: BLI; details: 10 uM DNA, BLI: 20 mM Tris pH 8, 150 mM NaCl, 5% glycerol, 2 mM DTT, 0.1 mM PMSF, temperature not stated, recombinant protein, residues 556-629
T2 sequence (looked up): T1 sequence (looked up, limits assumed)

Row | Sequence | binding result (AR-DBD (biotinylated)) | further results
1 | CTAGTTATGAGTACCTGCCGTACCCTTTC / TCGAGAAAGGGTACGGCAGGTACTCATAA [TMPRSS2-ARE (EMSA probe)] |  | binding result (AR-DBD (EMSA)): binds
2 | CTTTTCTAGAACACTGGGGCATCTCCA (double strand) [CHST11-ARE (BLI)] | binds | 
3 | CTTTTCTATAATACTGGTGTATCTCCA (double strand) [CHST11-ARE-mutated] | no binding | 
4 | TATTTGCTTTTCTCTGGGGCATCTCCA (double strand) [CHST11-ARE-deletion] | no binding | 
5 | TTAGCTAGCACTTGCTGTTCTGCAAGT (double strand) [PSA-ARE (KLK3-ARE, BLI)] |  | binding result (AR-DBD (biotinylated); positive control): binds

Construct, isoform or probe ends are uncertain for at least one entry. For some assays here: A negative result means that nothing was seen under these conditions. Where a protein sequence is shown, tags need not be part of it. For some assays here: At least one verdict was read from the data and is not stated in words by the source.
